Record: PubChem BioAssay AID1159584 (Peter MacCallum Cancer Centre, 2016)
Screen: 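Genes that CDH1-null MCF10A cells selectively depend on to survive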 (primary screen). System: human MCF10A breast epithelial cells, parental and CDH1-null. Reagents: siRNA against human genes. Measured: 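Cell viability by CellTiter-Glo ATP luminescence, each line scaled to the mean of mock wells across plates, then CDH1-null over parental ratio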. Scale: CDH1-null / parental viability ratio: higher = CDH1-null cells survive relatively better than parental; CDH1-null viability vs mock: higher = more viable CDH1-null cells; parental viability vs mock: higher = more viable parental cells.
The deposit covers about 18,000 reagents; shown is a random part of them. Reagent sequences are not shown. The record does not give: the amount of reagent, the time to read-out.

gene,CDH1-null / parental viability ratio,CDH1-null viability vs mock (fraction of mock),parental viability vs mock (fraction of mock)
CIB3 (calcium and integrin binding family member 3),1.3,0.92,0.71
C7orf33 (chromosome 7 open reading frame 33),1.2,0.67,0.56
SLC25A30,0.98,0.92,0.94
APOA1 (apolipoprotein A1),1.05,0.88,0.84
"PCDHGA7 (protocadherin gamma subfamily A, 7)",0.79,0.64,0.81
TAS2R4 (taste 2 receptor member 4),0.81,0.52,0.64
MAEL (maelstrom spermatogenic transposon silencer),1.05,0.98,0.93
TMEM50B (transmembrane protein 50B),1.14,1.08,0.95
FEM1C (fem-1 homolog C),1.11,0.82,0.74
GCM2 (GCM transcription factor 2),1.23,1.08,0.88
OTOG (otogelin),0.99,0.77,0.78
SEMG2 (semenogelin 2),0.92,0.7,0.76
WDR5 (WD repeat domain 5),1.17,0.9,0.77
GHRL (ghrelin and obestatin prepropeptide),1.58,0.6,0.38
MPP3 (MAGUK p55 scaffold protein 3),0.72,0.72,1
TUBGCP3 (tubulin gamma complex component 3),0.94,0.45,0.48
TBC1D32 (TBC1 domain family member 32),0.94,1,1.06
GUCY2C (guanylate cyclase 2C),0.95,1.06,1.12
NRF1 (nuclear respiratory factor 1),1.25,0.7,0.56
AKNAD1 (AKNA domain containing 1),1.03,0.95,0.92
TDG (thymine DNA glycosylase),1.13,1.08,0.96
"LIPC (lipase C, hepatic type)",0.92,0.77,0.84
FOXP3 (forkhead box P3),0.98,0.88,0.9
FYB1 (FYN binding protein 1),1.16,0.86,0.74
ATXN3 (ataxin 3),1.03,1.23,1.2
CAMP (cathelicidin antimicrobial peptide),1.22,0.88,0.72
"NT5M (5',3'-nucleotidase, mitochondrial)",1.5,0.84,0.56
UBR1 (ubiquitin protein ligase E3 component n-recognin 1),0.87,0.54,0.62
